# Results published in PubChem BioAssay (EPA / NIEHS).
# Chains of the proteins cited; added tags and fusions are not shown. Lines headed by an entry give the natural chain unless they say otherwise; changes in a name come on top.
# UniProt Q15678: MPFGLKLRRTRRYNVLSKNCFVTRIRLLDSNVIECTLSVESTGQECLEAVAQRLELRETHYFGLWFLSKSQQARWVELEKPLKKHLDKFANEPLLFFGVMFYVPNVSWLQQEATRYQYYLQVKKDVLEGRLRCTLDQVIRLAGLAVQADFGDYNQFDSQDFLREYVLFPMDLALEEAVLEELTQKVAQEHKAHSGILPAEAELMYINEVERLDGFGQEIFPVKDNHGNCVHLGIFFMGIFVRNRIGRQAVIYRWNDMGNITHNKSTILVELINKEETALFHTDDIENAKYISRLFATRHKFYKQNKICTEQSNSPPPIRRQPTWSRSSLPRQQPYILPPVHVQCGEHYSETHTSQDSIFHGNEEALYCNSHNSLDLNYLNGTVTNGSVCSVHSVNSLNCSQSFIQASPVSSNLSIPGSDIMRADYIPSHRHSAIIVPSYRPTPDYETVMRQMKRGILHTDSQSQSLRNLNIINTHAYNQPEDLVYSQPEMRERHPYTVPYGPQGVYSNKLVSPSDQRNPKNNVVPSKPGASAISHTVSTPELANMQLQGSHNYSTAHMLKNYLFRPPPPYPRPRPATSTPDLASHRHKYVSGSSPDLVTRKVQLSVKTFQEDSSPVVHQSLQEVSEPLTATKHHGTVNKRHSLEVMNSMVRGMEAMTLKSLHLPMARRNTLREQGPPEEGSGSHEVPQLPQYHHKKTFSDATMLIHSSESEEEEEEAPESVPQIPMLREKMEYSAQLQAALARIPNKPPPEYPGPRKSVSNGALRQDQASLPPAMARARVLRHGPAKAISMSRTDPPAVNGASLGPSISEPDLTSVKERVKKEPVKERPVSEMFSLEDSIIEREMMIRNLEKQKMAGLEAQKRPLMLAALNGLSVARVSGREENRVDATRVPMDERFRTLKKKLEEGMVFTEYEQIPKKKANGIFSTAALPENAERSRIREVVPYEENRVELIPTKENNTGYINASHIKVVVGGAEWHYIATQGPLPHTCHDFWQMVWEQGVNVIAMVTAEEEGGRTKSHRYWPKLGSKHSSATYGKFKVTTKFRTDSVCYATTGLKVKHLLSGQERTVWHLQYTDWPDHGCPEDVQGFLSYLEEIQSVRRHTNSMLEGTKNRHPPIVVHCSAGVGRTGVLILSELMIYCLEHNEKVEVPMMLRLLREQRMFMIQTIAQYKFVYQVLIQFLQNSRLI
# UniProt P06241, whole entry, looked up: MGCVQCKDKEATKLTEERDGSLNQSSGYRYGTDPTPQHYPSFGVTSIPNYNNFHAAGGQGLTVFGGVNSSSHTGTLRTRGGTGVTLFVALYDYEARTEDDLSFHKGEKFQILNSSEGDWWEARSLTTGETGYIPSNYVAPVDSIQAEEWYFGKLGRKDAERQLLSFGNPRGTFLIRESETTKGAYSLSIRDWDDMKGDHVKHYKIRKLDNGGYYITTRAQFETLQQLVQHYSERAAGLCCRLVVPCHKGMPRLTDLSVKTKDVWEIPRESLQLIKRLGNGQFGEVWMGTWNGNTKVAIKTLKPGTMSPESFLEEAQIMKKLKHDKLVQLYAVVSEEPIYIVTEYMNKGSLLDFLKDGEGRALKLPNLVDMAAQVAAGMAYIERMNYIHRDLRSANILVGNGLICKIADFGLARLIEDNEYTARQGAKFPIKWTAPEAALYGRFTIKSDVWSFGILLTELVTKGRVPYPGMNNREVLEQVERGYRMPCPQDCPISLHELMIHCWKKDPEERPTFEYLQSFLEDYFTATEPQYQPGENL
# UniProt P35968, whole entry, looked up: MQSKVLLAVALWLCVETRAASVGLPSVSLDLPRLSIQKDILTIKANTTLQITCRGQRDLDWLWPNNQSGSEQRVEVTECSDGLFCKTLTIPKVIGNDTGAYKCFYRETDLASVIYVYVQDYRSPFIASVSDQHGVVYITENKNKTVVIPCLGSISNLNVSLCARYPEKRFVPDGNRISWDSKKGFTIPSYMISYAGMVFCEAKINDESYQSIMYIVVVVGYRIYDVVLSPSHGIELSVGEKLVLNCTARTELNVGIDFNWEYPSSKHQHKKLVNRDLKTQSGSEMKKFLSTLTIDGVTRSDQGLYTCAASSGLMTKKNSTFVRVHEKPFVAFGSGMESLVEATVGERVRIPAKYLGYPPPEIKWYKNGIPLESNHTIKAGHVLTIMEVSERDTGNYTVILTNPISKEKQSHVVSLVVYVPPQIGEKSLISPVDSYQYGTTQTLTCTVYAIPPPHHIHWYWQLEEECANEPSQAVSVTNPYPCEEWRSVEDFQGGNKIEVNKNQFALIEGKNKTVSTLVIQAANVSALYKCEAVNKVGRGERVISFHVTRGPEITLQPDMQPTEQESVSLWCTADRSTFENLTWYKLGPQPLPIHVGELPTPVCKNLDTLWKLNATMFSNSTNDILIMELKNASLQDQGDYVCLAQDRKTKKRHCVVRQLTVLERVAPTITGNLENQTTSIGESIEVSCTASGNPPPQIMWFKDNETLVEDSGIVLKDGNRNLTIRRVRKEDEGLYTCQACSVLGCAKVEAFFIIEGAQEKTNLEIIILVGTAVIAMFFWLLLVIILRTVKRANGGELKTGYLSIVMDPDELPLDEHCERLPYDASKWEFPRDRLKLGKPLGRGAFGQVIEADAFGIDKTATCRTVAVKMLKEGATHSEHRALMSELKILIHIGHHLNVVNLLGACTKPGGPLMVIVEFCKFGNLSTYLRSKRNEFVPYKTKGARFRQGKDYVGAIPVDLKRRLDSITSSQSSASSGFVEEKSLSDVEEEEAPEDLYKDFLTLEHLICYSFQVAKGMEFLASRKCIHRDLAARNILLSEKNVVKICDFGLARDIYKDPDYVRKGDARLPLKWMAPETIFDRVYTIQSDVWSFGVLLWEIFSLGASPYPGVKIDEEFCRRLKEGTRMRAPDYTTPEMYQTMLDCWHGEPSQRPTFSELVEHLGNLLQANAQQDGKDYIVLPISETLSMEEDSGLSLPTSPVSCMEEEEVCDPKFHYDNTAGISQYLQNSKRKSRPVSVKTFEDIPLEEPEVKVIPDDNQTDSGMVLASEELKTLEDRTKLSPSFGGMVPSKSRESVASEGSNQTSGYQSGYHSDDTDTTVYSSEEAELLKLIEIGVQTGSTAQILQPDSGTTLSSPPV
# UniProt P37231: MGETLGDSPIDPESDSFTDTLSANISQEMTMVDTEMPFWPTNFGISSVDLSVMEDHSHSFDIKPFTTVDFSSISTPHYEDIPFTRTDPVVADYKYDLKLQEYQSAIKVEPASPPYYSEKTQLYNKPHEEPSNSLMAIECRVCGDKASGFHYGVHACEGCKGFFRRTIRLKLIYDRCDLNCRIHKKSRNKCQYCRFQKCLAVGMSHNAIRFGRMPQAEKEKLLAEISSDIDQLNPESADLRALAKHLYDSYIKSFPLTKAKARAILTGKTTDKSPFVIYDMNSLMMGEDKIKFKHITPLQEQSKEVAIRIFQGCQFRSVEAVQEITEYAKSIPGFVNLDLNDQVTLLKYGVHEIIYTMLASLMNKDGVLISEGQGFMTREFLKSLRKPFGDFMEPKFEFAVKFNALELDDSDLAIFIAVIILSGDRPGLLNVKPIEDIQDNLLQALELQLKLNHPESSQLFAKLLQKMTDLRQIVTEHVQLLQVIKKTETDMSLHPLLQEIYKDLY
# UniProt P16177, whole entry, looked up: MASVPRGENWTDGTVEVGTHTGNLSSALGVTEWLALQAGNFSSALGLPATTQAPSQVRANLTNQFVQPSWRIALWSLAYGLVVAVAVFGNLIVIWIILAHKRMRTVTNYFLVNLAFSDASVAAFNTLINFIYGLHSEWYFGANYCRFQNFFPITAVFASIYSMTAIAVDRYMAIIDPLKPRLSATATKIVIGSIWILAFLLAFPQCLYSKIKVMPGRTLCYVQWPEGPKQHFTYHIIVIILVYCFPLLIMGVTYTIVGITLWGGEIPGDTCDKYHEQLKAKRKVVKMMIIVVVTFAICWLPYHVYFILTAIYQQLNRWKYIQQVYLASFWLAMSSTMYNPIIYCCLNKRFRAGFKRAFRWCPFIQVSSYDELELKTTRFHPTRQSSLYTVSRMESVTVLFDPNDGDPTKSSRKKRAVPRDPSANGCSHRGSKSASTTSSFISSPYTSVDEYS
# UniProt P30536, whole entry, looked up: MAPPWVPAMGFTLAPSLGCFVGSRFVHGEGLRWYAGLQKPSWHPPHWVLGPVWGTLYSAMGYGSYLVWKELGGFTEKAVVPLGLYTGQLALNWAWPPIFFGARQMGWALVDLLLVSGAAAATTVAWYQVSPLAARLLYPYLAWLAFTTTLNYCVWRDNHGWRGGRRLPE
# UniProt P08684, whole entry, looked up: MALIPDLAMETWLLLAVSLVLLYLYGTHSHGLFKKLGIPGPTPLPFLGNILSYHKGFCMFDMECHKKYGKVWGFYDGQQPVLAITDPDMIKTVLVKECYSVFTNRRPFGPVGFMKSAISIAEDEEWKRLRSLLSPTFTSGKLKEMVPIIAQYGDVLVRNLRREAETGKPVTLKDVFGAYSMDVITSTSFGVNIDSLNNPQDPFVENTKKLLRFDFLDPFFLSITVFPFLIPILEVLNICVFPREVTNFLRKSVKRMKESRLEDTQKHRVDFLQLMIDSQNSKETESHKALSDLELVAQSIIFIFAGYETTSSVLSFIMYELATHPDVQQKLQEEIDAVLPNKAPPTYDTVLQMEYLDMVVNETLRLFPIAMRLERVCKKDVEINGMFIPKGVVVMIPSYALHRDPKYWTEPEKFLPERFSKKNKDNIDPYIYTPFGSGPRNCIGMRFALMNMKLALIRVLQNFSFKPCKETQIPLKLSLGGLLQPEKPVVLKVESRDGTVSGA
# UniProt Q02763: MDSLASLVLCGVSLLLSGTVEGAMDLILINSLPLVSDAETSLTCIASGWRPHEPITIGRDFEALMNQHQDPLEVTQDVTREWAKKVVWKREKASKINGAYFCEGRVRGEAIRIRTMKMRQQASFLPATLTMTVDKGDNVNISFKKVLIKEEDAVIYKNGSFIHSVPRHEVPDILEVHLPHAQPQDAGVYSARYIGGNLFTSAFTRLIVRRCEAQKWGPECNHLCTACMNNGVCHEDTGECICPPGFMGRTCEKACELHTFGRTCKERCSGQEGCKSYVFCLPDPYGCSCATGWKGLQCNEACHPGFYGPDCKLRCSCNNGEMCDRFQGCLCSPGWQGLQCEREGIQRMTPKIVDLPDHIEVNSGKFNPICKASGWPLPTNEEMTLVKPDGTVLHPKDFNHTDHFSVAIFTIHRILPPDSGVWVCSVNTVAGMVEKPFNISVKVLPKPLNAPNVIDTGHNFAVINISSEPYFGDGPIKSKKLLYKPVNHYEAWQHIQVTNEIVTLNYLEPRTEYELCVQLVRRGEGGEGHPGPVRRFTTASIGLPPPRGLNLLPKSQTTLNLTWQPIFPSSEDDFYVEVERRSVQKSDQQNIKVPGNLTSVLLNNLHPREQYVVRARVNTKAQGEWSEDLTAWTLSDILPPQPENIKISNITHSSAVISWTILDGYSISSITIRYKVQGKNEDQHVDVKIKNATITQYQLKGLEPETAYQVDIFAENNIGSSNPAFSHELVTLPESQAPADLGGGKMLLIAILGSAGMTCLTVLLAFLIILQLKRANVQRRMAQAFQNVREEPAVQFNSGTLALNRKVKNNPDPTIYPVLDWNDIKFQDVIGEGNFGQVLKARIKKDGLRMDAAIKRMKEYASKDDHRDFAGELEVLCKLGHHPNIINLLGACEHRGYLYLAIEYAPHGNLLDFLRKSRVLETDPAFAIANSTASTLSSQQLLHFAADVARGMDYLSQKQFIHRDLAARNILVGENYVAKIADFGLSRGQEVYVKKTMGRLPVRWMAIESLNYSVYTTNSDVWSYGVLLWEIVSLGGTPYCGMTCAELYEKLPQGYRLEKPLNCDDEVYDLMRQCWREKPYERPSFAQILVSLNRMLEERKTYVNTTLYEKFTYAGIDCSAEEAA
# UniProt Q07869: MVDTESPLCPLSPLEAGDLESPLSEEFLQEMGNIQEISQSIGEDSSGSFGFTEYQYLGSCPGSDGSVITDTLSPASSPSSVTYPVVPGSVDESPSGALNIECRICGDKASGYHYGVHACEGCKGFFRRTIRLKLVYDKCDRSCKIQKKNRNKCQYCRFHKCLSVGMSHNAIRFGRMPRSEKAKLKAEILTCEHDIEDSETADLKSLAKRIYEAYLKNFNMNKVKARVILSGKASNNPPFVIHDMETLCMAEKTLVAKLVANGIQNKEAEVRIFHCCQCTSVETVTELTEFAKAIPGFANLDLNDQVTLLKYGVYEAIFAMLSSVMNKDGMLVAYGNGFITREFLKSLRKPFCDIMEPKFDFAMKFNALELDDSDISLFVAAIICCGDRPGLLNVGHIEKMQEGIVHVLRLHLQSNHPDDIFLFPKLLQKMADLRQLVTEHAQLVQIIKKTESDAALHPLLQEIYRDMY
# Inconclusive means that the source gave no clear call. Such entries were picked first, then a sample of the others. For part of these data: A potency beside an inconclusive call is a rough fit, not a confirmed value. Calls of active or inactive are those of the source. Rule for the calls: active = hit-call score of the fitted dose curve at least 0.9, where 1 is the maximum; inconclusive = response in the unintended direction; inactive = score below 0.9.
# What was measured:
# [1] = target: Mitogen-activated protein kinase 3 (Homo sapiens) (UniProt P27361); assay: NVS_ENZ_hMAPK3: NovaScreen (NVS) Enzymatic Assay for human Mitogen-Activated Protein Kinase 3 (MAPK 3) (AID 2283177)
# Outline: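 Chemicals were first tested in duplicate at 25 uM, with hits re-run as concentration series (max 50 uM). Recombinant enzyme activity, measured 1 h post-dose in a cell-free format, was read by fluorescence/mobility shift relative to DMSO.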
# [2] = target: Tyrosine-protein phosphatase non-receptor type 14 (Homo sapiens) (UniProt Q15678); assay: NVS_ENZ_hPTPN14: NovaScreen (NVS) Enzymatic Assay for human Protein Tyrosine Phosphatase Non-receptor Type 14 (PTPN14) (AID 2283206)
# Outline: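 Fluorescent substrate turnover by recombinant human PTPN14 was measured 0.5 h after compound addition, with substrate and product separated by mobility shift. Single-point screening at 25 uM, then concentration-response up to 50 uM for chemicals meeting threshold (e.g., 30% inhibition).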
# [3] = target: human FYN Proto-Oncogene, Src family Tyrosine Kinase (Fyn), FYN (gene 2534) (UniProt P06241); assay: NVS_ENZ_hFyn: NovaScreen (NVS) Enzymatic Assay for human FYN Proto-Oncogene, Src family Tyrosine Kinase (Fyn) (AID 2283161)
# Outline: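 Cell-free kinase activity read by fluorescence after mobility-shift separation of substrate and product, 1 h post-dose. Initial single concentration 25 uM in duplicate, then concentration-response follow-up; DMSO baseline.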
# [4] = target: human Vascular Endothelial Growth Factor Receptor 2 (VEGFR2), KDR (gene 3791) (UniProt P35968); assay: NVS_ENZ_hVEGFR2: NovaScreen (NVS) Enzymatic Assay for human Vascular Endothelial Growth Factor Receptor 2 (VEGFR2) (AID 2283230)
# Outline: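 Cell-free recombinant VEGFR2 kinase, fluorescent substrate with electrophoretic mobility-shift separation; read 1 h after dosing. Screened at 25 uM in duplicate, hits to concentration-response up to 50 uM; loss-of-signal versus DMSO.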
# [5] = target: Peroxisome proliferator-activated receptor gamma (Homo sapiens) (UniProt P37231); assay: OT_PPARg_PPARgSRC1_0480: Odyssey Thera (OT) 8-hour Protein-Complementation Assay for Peroxisome Proliferator-activated Receptor Gamma / SRC-1 Co-activator (AID 2283387);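 note: nuclear to cytoplasmic split Venus YFP fluorescence ratio reporting PPARg SRC-1 interaction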
# Outline: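 Protein-fragment complementation of split Venus YFP reports PPARg/SRC-1 interaction in HEK293T (transfected 48 h before treatment), exposed 8 h. Readout: N/C fluorescence ratio at 488 nm from imaging, Draq5 for segmentation, positive fit relative to DMSO.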
# [6] = target: rabbit Imidazoline 2 Central (I2C), CKB (gene 100009085) (UniProt P00567); assay: NVS_ENZ_rabI2C: NovaScreen (NVS) Enzymatic Assay for rabbit Imidazoline 2 Central (I2C) (AID 2283228)
# Outline: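 Rabbit brain membranes, cell-free; readout by filter-based scintillation counting 1.5 hours after dosing, loss of signal vs DMSO. Initial duplicate test at 25 uM, then concentration-response with 50 uM top concentration.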
# [7] = target: rat Neurokinin-3 Receptor (NK3), Tacr3 (gene 24808) (UniProt P16177); assay: NVS_GPCR_rNK3: NovaScreen (NVS) G Protein-Coupled Receptor Assay for rat Neurokinin-3 Receptor (NK3) (AID 2283310)
# Outline: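 Filter-based radioligand displacement on rat cortex membrane preparations, read by scintillation 2 h post-dose. Chemicals first tested in duplicate at 25 uM; actives followed up in concentration series with a 50 uM maximum.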
# [8] = Tanguay_ZF_120hpf_YSE_legacy: (Legacy) Oregon State University Tanguay Lab 120 Hour Post-fertilization zebrafish Assay for Yolk Sac Edema (AID 2283634);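 note: actives raise the incidence of yolk sac edema above the DMSO baseline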
# Outline: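 Binary brightfield scoring of yolk sac edema at 120 hpf; DMSO baseline, gain-of-signal fitting. Dechorionated 5D larvae, one per well, static exposure 6–120 hpf, 28C, 0.64% DMSO. Dead embryos not scored.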
# [9] = target: human Peripheral-type Benzodiazepine Receptor (PBR), TSPO (gene 706) (UniProt P30536); assay: NVS_MP_hPBR: NovaScreen (NVS) Membrane Protein Assay for human Peripheral-type Benzodiazepine Receptor (PBR) (AID 2283331);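 note: hits reduce radioligand binding relative to DMSO baseline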
# Outline: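 Using human colon-derived membranes, this one-endpoint binding test reads radioligand loss by scintillation after 1 h. Screening started at 25 uM in duplicate, with positive and negative controls on every plate, and actives moved to dose series.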
# [10] = IUF_NPC4_neurite_area_120hr: Leibniz Research Institute for Environmental Medicine (IUF) 120-hour Neuronal Morphology Assay for Neurite Area (NPC4) (AID 2284305)
# Outline: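 Endpoint at 120 h: automated imaging of TUBB3/Hoechst-stained differentiating human neural progenitor spheres, neurite area per neuron from skeletonization. DMSO solvent control, not above 0.1%, set the baseline; medium was half-replaced on day 3.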
# [11] = target: Cytochrome P450 3A4 (Homo sapiens) (UniProt P08684); assay: NVS_ADME_hCYP3A4: NovaScreen (NVS) CYP450-related Enzyme Activity (ADME) Assay for human CYP3A4 (AID 2283110)
# Outline: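 Activity is derived from decreased fluorescence intensity relative to acetonitrile, measured 0.33 hour after dosing insect-cell-expressed CYP3A4 in a cell-free format. Screening used 10 uM in duplicate before concentration-response follow-up.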
# [12] = CCTE_Simmons_CellTiterGLO_HEK293T: Viability Assessment in CCTE's Assays for Thyroperoxidase (TPO) Inhibition, Simmons Lab (AID 2283665);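 note: cells exposed to compound for 24 h before readout; actives reduce ATP signal below DMSO vehicle meaning cytotoxicity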
# Outline: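 Cells were seeded overnight, then exposed to an eight-point series up to 87.5 uM final for 24 hours. CellTiter-Glo reagent was added and luminescence read after 20 min, giving ATP-based viability versus DMSO.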
# [13] = STM_H9_NormalizedViability: Cytotoxicity Assessment at 120 hours in the Stemina devTOX quickPredict H9 human embryonic stem cell (hESC)-based Assay (AID 2283784)
# Outline: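 Viability of the cell layer was taken from live-cell protease cleavage of a fluorogenic substrate after compound exposure of undifferentiated H9 stem cells, with replenishment each 24h. Fluorescence was normalized to vehicle (0.1% DMSO).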
# [14] = target: human Tyrosine Protein Kinase Receptor Tie-2 (Tie2), TEK (gene 7010) (UniProt Q02763); assay: NVS_ENZ_hTie2: NovaScreen (NVS) Enzymatic Assay for human Tyrosine Protein Kinase Receptor Tie-2 (Tie2) (AID 2283225)
# Outline: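 Substrate and product were separated by mobility shift and detected by fluorescence after a 1-hour reaction with recombinant Tie2. Chemicals passing a 25 uM single-point screen were titrated to a maximum of 50 uM. Results were normalized to DMSO baseline.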
# [15] = target: Glycogen synthase kinase-3 beta (Homo sapiens) (UniProt P49841); assay: NVS_ENZ_hGSK3b: NovaScreen (NVS) Enzymatic Assay for human Glycogen Synthase Kinase-3 beta (GSK3b) (AID 2283165)
# Outline: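 Recombinant enzyme with specific fluorescent substrate, 1 h, product separated by electrophoretic mobility shift. Primary duplicate screen at 25 uM; actives (e.g. 30% inhibition) followed in singleton concentration-response to 50 uM. Signal loss fitted versus DMSO.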
# [16] = target: human Peroxisome Proliferator-activated Receptor alpha (PPARa), PPARA (gene 5465) (UniProt Q07869); assay: NVS_NR_hPPARa: NovaScreen (NVS) Nuclear Receptor Binding Assay for human Peroxisome Proliferator-activated Receptor alpha (PPARa) (AID 2283359);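 note: activity means loss of TR-FRET signal versus DMSO baseline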
# Outline: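 One-hour incubation, cell-free extracted protein, TR-FRET binding readout; signal loss vs DMSO scored. Screen: 25 uM duplicates, confirmatory dose series for actives.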
smiles,measurement,setting,value
C[C@@H]1C[C@@H]([C@H](O)CC2CC(=O)NC(=O)C2)C(=O)[C@@H](C)C1,outcome,[1],inactive
same,AC50,[2],inconclusive: 0.27 µM
O=[N+]([O-])c1ccc(Cl)cc1,outcome,[3],inactive
same,AC50,[2],inconclusive: 0.461 µM
same,outcome,[4],inactive
c1ccc(C2CO2)cc1 (stereo unspecified),outcome,[5],inactive
N#CC(Br)Br,AC50,[6],inconclusive: 4.66 µM
same,outcome,[7],inactive
same,AC50,[8],inconclusive: 200 µM
CC1(C)[C@H](C(=O)O[C@H](C#N)c2cccc(Oc3ccccc3)c2)[C@@H]1/C=C(\Cl)C(F)(F)F,AC50,[9],inconclusive: 32.7 µM
CCOc1ccc(C(C)(C)COCc2cccc(Oc3ccccc3)c2)cc1,outcome,[10],inactive
NC(=S)Nc1ccccc1,AC50,[11],inconclusive: 5 µM
CCC(=O)Nc1ccc(Cl)c(Cl)c1,AC50,[6],active: 15.7 µM
N#CS,AC50,[12],inconclusive: 53.6 µM
same,AC50,[13],inconclusive: 50 µM
Oc1ccccc1Cl,AC50,[8],inconclusive: 31 µM
CC(C)NCC(O)c1ccc(O)c(O)c1 (stereo unspecified),AC50,[14],inconclusive: 25 µM
O=C(O)C(F)(F)C(F)(F)C(F)(F)C(F)(F)C(F)(F)C(F)(F)C(F)(F)F,outcome,[3],inactive
same,AC50,[15],inconclusive: 0.332 µM
same,AC50,[9],inconclusive: 0.558 µM
same,AC50,[16],inconclusive: 0.0854 µM

# Part of the list above, as tab-separated lines:
smiles	measurement	setting	value
CCC(=O)Nc1ccc(Cl)c(Cl)c1	AC50	[6]	active: 15.7 µM
N#CS	AC50	[12]	inconclusive: 53.6 µM
